From patent US20090131304A1 (Novartis Vaccines and Diagnostics, Inc., priority 2005, published 2009)

Assay: peptide synthesis
Conditions: late stage modification step

Substance: Desmethyl-vancomycin-Gly-p-n-Octyloxybenzyl
- step yield: 40%
